# Laboratory results as given in publication PMC5996148.
# The list shows a part of the results. For some of these results: The source does not settle which construct or isoform was used.
# How the values were obtained:
# Assay in all cases: protein microarray (ProtoArray v5.0), streptavidin-Alexa Fluor 647
# Details in all cases: 3'-biotin; 20 mM Tris (pH 7.5), 5 mM MgCl2, 100 mM KCl, 0.1% Tween-20, A/T-rich and random oligonucleotide blockers; temperature not stated; high values mean tight binding
# [1] = tested on: CLDN2 (human)
# [2] = molecular target: T1, CLIP4 (UniProt Q8N3C7)
# T1 sequence: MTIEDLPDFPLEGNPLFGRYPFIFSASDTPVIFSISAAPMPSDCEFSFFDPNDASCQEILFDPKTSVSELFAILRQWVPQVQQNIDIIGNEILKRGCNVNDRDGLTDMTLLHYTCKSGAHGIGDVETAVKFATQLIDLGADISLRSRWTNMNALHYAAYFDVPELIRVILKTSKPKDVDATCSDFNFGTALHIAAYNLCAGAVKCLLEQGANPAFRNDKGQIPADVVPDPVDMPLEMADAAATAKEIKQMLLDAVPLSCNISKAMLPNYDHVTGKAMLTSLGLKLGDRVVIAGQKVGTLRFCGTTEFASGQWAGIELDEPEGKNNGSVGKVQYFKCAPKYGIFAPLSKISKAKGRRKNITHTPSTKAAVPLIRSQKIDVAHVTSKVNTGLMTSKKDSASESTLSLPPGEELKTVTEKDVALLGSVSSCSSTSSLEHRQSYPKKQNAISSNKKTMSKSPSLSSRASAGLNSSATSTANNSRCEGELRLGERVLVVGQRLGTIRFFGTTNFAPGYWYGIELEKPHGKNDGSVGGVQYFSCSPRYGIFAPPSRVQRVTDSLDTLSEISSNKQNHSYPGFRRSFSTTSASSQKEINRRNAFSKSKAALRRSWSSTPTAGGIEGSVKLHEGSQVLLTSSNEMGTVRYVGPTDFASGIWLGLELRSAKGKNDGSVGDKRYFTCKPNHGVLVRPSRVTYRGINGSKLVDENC
# [3] = molecular target: T2, CLTA (UniProt P09496)
# T2 sequence: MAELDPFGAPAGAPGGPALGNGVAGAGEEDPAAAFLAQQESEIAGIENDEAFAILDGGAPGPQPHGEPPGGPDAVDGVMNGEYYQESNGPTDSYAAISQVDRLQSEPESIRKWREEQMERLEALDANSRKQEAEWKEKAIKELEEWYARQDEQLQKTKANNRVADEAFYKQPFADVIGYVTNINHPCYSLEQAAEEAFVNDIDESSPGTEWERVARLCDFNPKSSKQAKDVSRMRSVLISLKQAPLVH
# [4] = tested on: CLTB (human)
# [5] = tested on: CLUL1 (human)
# [6] = tested on: CNIH (human)
# [7] = tested on: CNNM1 (human)
# [8] = tested on: CNR2 (human)
# [9] = tested on: COASY (human)
# [10] = tested on: COBRA1 (human)
sequence,measurement,setting,value
GGGGACAGGGGTATGGGGAGGGG [G4-3 biotinylated (CtG)],binding signal,[1],-0.329 z-score
same,binding signal,[2],4.34 z-score
same,binding signal,[3],-0.331 z-score
same,binding signal,[4],-0.335 z-score
same,binding signal,[5],-0.321 z-score
same,binding signal,[6],-0.314 z-score
same,binding signal,[7],-0.331 z-score
same,binding signal,[8],-0.305 z-score
same,binding signal,[9],-0.335 z-score
same,binding signal,[10],-0.327 z-score

# Reprinted at random: two records from the list, in no set order.
sequence,measurement,setting,value
GGGGACAGGGGTATGGGGAGGGG [G4-3 biotinylated (CtG)],binding signal,[8],-0.305 z-score
same,binding signal,[1],-0.329 z-score
